Data as given in PubChem BioAssay AID504764 (Drosophila RNAi Screening Center, 2011).
The deposit covers about 22,000 reagents; shown is a random part of those that have a named target and a result. Of all reagents, 403 (1.9%) are marked active. 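Unnormalised raw counts per well; ratio z-scores behind the hit calls and whether each hit raises or lowers signal are not deposited.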 Not stated in the record: the amount of reagent.

Screen: 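Genome-wide screen for regulators of Notch-driven gene expression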 (primary screen)
System: Drosophila Kc167 cells
Reagents: long dsRNA against Drosophila genes
Time to read-out: about 5 days (4 days dsRNA, then 24 h after transfection)
Treatment: transfection of constitutively active membrane-tethered Notch lacking the extracellular domain, read 24 h later
Detection: 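Light from a Notch-responsive E(spl)m3 luciferase reporter under active Notch, with control-promoter and no-Notch reporter wells to normalise; raw counts from paired wells a and b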
Direction: induced reporter light, run 1, well a and induced reporter light, run 1, well b: higher = more light from the Notch target reporter with active Notch; control promoter light, run 1, well a and control promoter light, run 1, well b: higher = more light from the viral control promoter (cell number, transfection, viability); uninduced reporter light, run 1, well a: higher = more light from the Notch target reporter without active Notch
Hit rule: 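Hit if the duplicate-averaged log2 ratio of induced to control-promoter light gives a plate-wise z beyond ±2, or induced to uninduced beyond ±1.8; weak-control or discordant-duplicate wells dropped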
Calls: active = modifier hit (raised or lowered Notch signal); inactive = not a hit

Knock-down of CG33301 [DRSC02778] came out at: induced reporter light, run 1, well a = 99685; induced reporter light, run 1, well b = 1.17e5; control promoter light, run 1, well a = 71455; control promoter light, run 1, well b = 85440; uninduced reporter light, run 1, well a = 14990; inactive. After knock-down of gprs [DRSC06761] the results were induced reporter light, run 1, well a = 1.81e5; induced reporter light, run 1, well b = 87025; control promoter light, run 1, well a = 97355; control promoter light, run 1, well b = 1.17e5; uninduced reporter light, run 1, well a = 12410; inactive. For Sp1 [DRSC17622] the deposit lists induced reporter light, run 1, well a = 75935; induced reporter light, run 1, well b = 69545; control promoter light, run 1, well a = 91530; control promoter light, run 1, well b = 77095; uninduced reporter light, run 1, well a = 6015; inactive. After knock-down of Sp1 [DRSC18717], the record shows induced reporter light, run 1, well a = 1.62e5; induced reporter light, run 1, well b = 1.30e5; control promoter light, run 1, well a = 3.09e5; control promoter light, run 1, well b = 2.81e5; uninduced reporter light, run 1, well a = 9790; inactive. RfC4 (Replication factor C subunit 4) [DRSC08691] showed induced reporter light, run 1, well a = 1.24e5; induced reporter light, run 1, well b = 1.01e5; control promoter light, run 1, well a = 87295; control promoter light, run 1, well b = 25480; uninduced reporter light, run 1, well a = 10285; inactive. Depletion of Es2 [DRSC18663] came out at: induced reporter light, run 1, well a = 2.04e5; induced reporter light, run 1, well b = 1.71e5; control promoter light, run 1, well a = 2.42e5; control promoter light, run 1, well b = 2.78e5; uninduced reporter light, run 1, well a = 12885; inactive.

For Nplp3 (Neuropeptide-like precursor 3) [DRSC09944] the deposit lists induced reporter light, run 1, well a = 1.72e5; induced reporter light, run 1, well b = 2.01e5; control promoter light, run 1, well a = 2.13e5; control promoter light, run 1, well b = 1.77e5; uninduced reporter light, run 1, well a = 8865; inactive. With knock-down of fsd (fates-shifted) [DRSC06166], the record shows induced reporter light, run 1, well a = 1.08e5; induced reporter light, run 1, well b = 1.02e5; control promoter light, run 1, well a = 1.40e5; control promoter light, run 1, well b = 1.04e5; uninduced reporter light, run 1, well a = 10380; inactive. Against Slbp (Stem-loop binding protein) [DRSC16863], the entry reads induced reporter light, run 1, well a = 1.05e5; induced reporter light, run 1, well b = 89205; control promoter light, run 1, well a = 1.80e5; control promoter light, run 1, well b = 1.37e5; uninduced reporter light, run 1, well a = 12655; inactive. For Ctr9 [DRSC08562] the deposit lists induced reporter light, run 1, well a = 70440; induced reporter light, run 1, well b = 69605; control promoter light, run 1, well a = 1.03e5; control promoter light, run 1, well b = 1.03e5; uninduced reporter light, run 1, well a = 4835; inactive. Against CG8545 [DRSC07210], the entry reads induced reporter light, run 1, well a = 1.20e5; induced reporter light, run 1, well b = 97270; control promoter light, run 1, well a = 1.02e5; control promoter light, run 1, well b = 1.06e5; uninduced reporter light, run 1, well a = 7510; inactive. For Rbm13 (RNA-binding motif protein 13) [DRSC17749], the values are induced reporter light, run 1, well a = 1.49e5; induced reporter light, run 1, well b = 1.61e5; control promoter light, run 1, well a = 2.68e5; control promoter light, run 1, well b = 3.21e5; uninduced reporter light, run 1, well a = 10940; inactive.

CG15025 [DRSC15031] gave induced reporter light, run 1, well a = 1.87e5; induced reporter light, run 1, well b = 1.56e5; control promoter light, run 1, well a = 1.94e5; control promoter light, run 1, well b = 1.91e5; uninduced reporter light, run 1, well a = 12192; inactive. With knock-down of FRG1 (FSHD region gene 1) [DRSC10648] the results were induced reporter light, run 1, well a = 1.58e5; induced reporter light, run 1, well b = 1.14e5; control promoter light, run 1, well a = 1.14e5; control promoter light, run 1, well b = 1.05e5; uninduced reporter light, run 1, well a = 5715; inactive. Silencing of CG7213 [DRSC10787] resulted in: induced reporter light, run 1, well a = 2.34e5; induced reporter light, run 1, well b = 2.04e5; control promoter light, run 1, well a = 3.64e5; control promoter light, run 1, well b = 2.61e5; uninduced reporter light, run 1, well a = 8230; inactive. Depletion of mav (maverick) [DRSC17149] gave: induced reporter light, run 1, well a = 1.35e5; induced reporter light, run 1, well b = 1.15e5; control promoter light, run 1, well a = 2.23e5; control promoter light, run 1, well b = 1.99e5; uninduced reporter light, run 1, well a = 8128; inactive. For stwl (stonewall) [DRSC11400] the deposit lists induced reporter light, run 1, well a = 15260; induced reporter light, run 1, well b = 22730; control promoter light, run 1, well a = 8795; control promoter light, run 1, well b = 9480; uninduced reporter light, run 1, well a = 6845; inactive. For CG11865 [DRSC01872], the entry reads induced reporter light, run 1, well a = 1.24e5; induced reporter light, run 1, well b = 1.25e5; control promoter light, run 1, well a = 1.24e5; control promoter light, run 1, well b = 1.43e5; uninduced reporter light, run 1, well a = 10245; inactive.

Single entries from above:
Under “control promoter light, run 1, well a”, CG11865 [DRSC01872] has 1.24e5
Entry of FRG1 (FSHD region gene 1) [DRSC10648] in “control promoter light, run 1, well b”: 1.05e5
